# Reference: PubChem BioAssay AID1347075 (National Center for Advancing Translational Sciences (NCATS), 2019)
# Hit rate of the full screen: of about 400,000 compounds, about 5,500 (1.4%) were called active. This list was built around the results that the source calls inconclusive (neither active nor inactive); the mix of calls is not that of the screen. Calls come from the whole dose curve; as a rule, active = well fitted cell-killing curve with a large enough effect; inconclusive = small, poorly fitted or top-dose-only effect, or effect the other way; inactive = flat fitted curve, though single readings scatter. Potencies beside an inconclusive call are fits to weak or partial responses and may not hold up.
# Assay: qHTS assay for MDR1-selective chemotherapeutics: Primary screen using the parental adenocarcinoma cell KB-3-1; note: nearly all actives have a fitted effect of over 60% in size
# Settings: KB-3-1 viability, CellTiter-Glo ATP luminescence, 72 h; activity change, negative = cytotoxic: at 46.1 µM (top of the series)
# Method in brief: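 Screening of KB-3-1 cells (DMEM, 10% FBS, phenol-red free) ran from lowest to highest compound concentration; after 72 h at 37 °C viability was read luminescently and curves fitted.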
# % is set by controls: 0 for no effect and ±100 for the full control effect; potency is the fitted concentration of half-maximal effect.
Structure (SMILES),Potency,"activity change, negative = cytotoxic"
Cc1ccc(C2(c3ccc(C)cc3)CC2C(=O)Nc2ccc([N+](=O)[O-])cc2O)cc1 (centres undefined),"inconclusive: 20.6 µM [cytotoxic, partial curve, poor fit]",–
Cc1cc(NC(=O)c2ccccc2)ncc1NC(=O)c1ccco1,"inconclusive: 23.1 µM [cytotoxic, single point]",–
Nc1ccc(C(=O)OCc2nc3ccccc3s2)cc1,inactive,–
COc1ccc(C2C(C(=O)NC(C)C)c3ccccc3C(=O)N2C)cc1OC (centres undefined),inactive,–
COc1cc(NC(=O)CCc2ccccc2)nc(OC)n1,"inconclusive: 31.6 µM [cytotoxic, partial curve, poor fit]",–
CCCn1c(SCC(=O)Nc2sc(C)c(C)c2C#N)nnc1C(C)C,inactive,–
Fc1ccc(-c2ccc(/C=N\n3cnnc3)o2)cc1Cl,"inconclusive: 29.1 µM [rising, single point]",–
COc1ccccc1-c1c(C(F)(F)F)oc2cc(OC(=O)c3cccc([N+](=O)[O-])c3C)ccc2c1=O,"inconclusive: 29.1 µM [cytotoxic, single point]",–
Cc1ccc(Cl)cc1-n1ncc2c(NCCCc3ccccc3)ncnc21,"inconclusive: 32.6 µM [cytotoxic, single point]",–
Cc1c(Nc2nc3ccccc3n3c(C)nnc23)cccc1C(=O)O,inactive,–
COc1cc(NC(=O)CNc2cccc(S(=O)(=O)N3CCCC3)c2)cc(OC)c1,"inconclusive: 23.1 µM [cytotoxic, single point]",–
CCCCNc1nc(=S)n(-c2ccccc2)c(C)c1C(C)=O,"inconclusive: 29.1 µM [cytotoxic, single point]",–
Nc1[nH]nc2ncc3cc4ccccc4nc3c12,"inconclusive: 0.0461 µM [cytotoxic, full curve]",–
COc1ccc(-n2cnc3cc(NC(=O)c4ccco4)ccc32)cc1,"inconclusive: 18.4 µM [rising, partial curve, poor fit]",–
CCCN1C2CCCC1CC(NC(=O)c1ccccc1)C2 (centres undefined),inactive,–
CCCCc1ccc(S(=O)(=O)N/N=C(/C)c2ccncc2)cc1,"inconclusive: 8.2 µM [cytotoxic, partial curve]",–
Cc1ccnc(Nc2nc(-c3c(C)nc4sccn34)cs2)c1,"inconclusive: 28.2 µM [cytotoxic, single point]",–
Cc1cc(NS(=O)(=O)c2ccccc2)c(C)c(Cl)c1O,"inconclusive: 9.2 µM [cytotoxic, partial curve, poor fit]",–
O=C(CSc1nnc(-c2ccc(Br)cc2)n1C1CCCCC1)N1CCCC1,inactive,–
CCOC(=O)C1CCCN(c2nc3ccccc3nc2C(C#N)C(=O)OCCOC)C1 (centres undefined),"inconclusive: 29.1 µM [cytotoxic, single point]",–
Cc1cc(C)n(-c2ccc(C(=O)N3CCN(S(=O)(=O)c4ccc(OC(F)(F)F)cc4)CC3)cc2)n1,inactive,–
O=C(Nc1ccccc1OC(F)F)C1CC(=O)N(Cc2ccccc2)C1 (centres undefined),"inconclusive: 2.59 µM [rising, full curve]",–
CN1CCN(c2ccccc2NC(=O)c2ccc(OCc3ccccc3)cc2)CC1,"inconclusive: 23.1 µM [cytotoxic, single point]",–

Structure (SMILES),Potency,"activity change, negative = cytotoxic"
CCC(C)(C)c1ccc(OCC(=O)N(C)C)c(C(C)(C)CC)c1,active: 16.4 µM,–
Cc1cccc(NC(=O)c2cc3c(=O)n4cccc(C)c4nc3s2)c1C,"inconclusive: 5.17 µM [cytotoxic, full curve]",–
CC(=O)c1ccc2noc(-c3ccc(F)cc3)c2c1,inactive,–
N=c1n(CC(=O)c2ccc([N+](=O)[O-])cc2)c2ccccc2n1Cc1ccccc1,"inconclusive: 25.9 µM [cytotoxic, single point]",–
CCOc1cc(/C=C/c2nc3ccccc3c(=O)[nH]2)ccc1O,"inconclusive: 20.6 µM [cytotoxic, single point]",–
Cc1cc(NCCCn2ccnc2)n2nc(C)c(-c3ccc(Cl)cc3)c2n1,"inconclusive: 23.1 µM [cytotoxic, single point]",–
Oc1ccccc1/C=N/Nc1cc(N2CCCC2)nc(N2CCCC2)n1,"inconclusive: 29.1 µM [cytotoxic, single point]",–
C/C(=N\NC(=O)CC1N=C(Cc2ccccc2)NNC1=O)c1ccc(Cl)cc1Cl (centres undefined),"inconclusive: 23.1 µM [cytotoxic, single point]",–
CCN(CC)S(=O)(=O)c1cccc(C(=O)Nc2ccc(C#N)cc2)c1,"inconclusive: 8.2 µM [cytotoxic, partial curve, poor fit]",–
Cc1ccc2nc(Cl)c3nnnn3c2c1,"inconclusive: 29.1 µM [cytotoxic, partial curve, poor fit]",–
FC(F)(F)c1ccccc1CN1CCCC(N2CCN(c3ccccc3)CC2)C1 (centres undefined),"inconclusive: 20.6 µM [cytotoxic, single point]",–
COc1ccccc1OCC(O)Cn1c(=N)n(CCN2CCCCC2)c2ccccc21 (centres undefined),"inconclusive: 20.6 µM [cytotoxic, single point]",–
O=C(Nc1nnc(-c2cccs2)o1)c1ccc(S(=O)(=O)N2CCOCC2)cc1,"inconclusive: 18.4 µM [cytotoxic, single point]",–
COc1ccc(-c2noc(C3CCCN(C(=O)c4ccccc4OC)C3)n2)cc1 (centres undefined),"inconclusive: 29.1 µM [cytotoxic, single point]",–
CCOC(=O)c1c(C(=O)OCC)c(C)n(N2C(=O)CSC2=S)c1C,"inconclusive: 18.4 µM [cytotoxic, partial curve, poor fit]",–
Clc1ccc2ccc3cccnc3c2n1,inactive,–
NC(=O)c1nsc(C(=O)N(CC(=O)NC2CCCCC2)c2ccc(Cl)cc2)c1N,inactive,–
CCC(c1nnnn1-c1ccc2c(c1)OCCO2)N1CCN(c2ccc(OC)cc2)CC1 (centres undefined),"inconclusive: 11.6 µM [cytotoxic, partial curve, poor fit]",–
COc1ccccc1N(Cc1ccccc1)S(=O)(=O)c1cccc(C(=O)NC2CC(C)(C)NC(C)(C)C2)c1,"inconclusive: 20.6 µM [cytotoxic, single point]",–
CC(C)COc1ccc(C(=O)OCC(=O)NCc2cccs2)cc1,"inconclusive: 29.1 µM [cytotoxic, single point]",–
CC1(C(=O)NCC2CC2)Cc2c(-c3ccc4c(c3)OCO4)ccnc2O1 (centres undefined),active: 14.6 µM,–
CCOc1ccc(Nc2nc3cc(Cl)c(Cl)cc3nc2-n2nc(C)cc2C)cc1,"inconclusive: 29.1 µM [rising, partial curve, poor fit]",–
COc1ccc(N2CCN(c3csc4ccc(Cl)cc4c3=O)CC2)cc1,"inconclusive: 2.91 µM [cytotoxic, partial curve, poor fit]",–

Structure (SMILES),Potency,"activity change, negative = cytotoxic"
CCn1c(-c2ccco2)nc2ccccc21,inactive,–
Cc1ccccc1-c1nc(CN(Cc2c(C)nn(C)c2C)C2CC2)c(C)o1,"inconclusive: 18.4 µM [cytotoxic, partial curve, poor fit]",–
COc1ccc(CNCc2c(O)c(Cl)cc3c(C)c(C)c(=O)oc23)c(OC)c1,inactive,–
Cc1ccc(C2=NN(C(=O)c3ccccc3F)C(c3ccccc3F)C2)cc1 (centres undefined),"inconclusive: 29.1 µM [cytotoxic, single point]",–
Oc1ccc2ccc(Cl)cc2c1,inactive,–
c1ccc(CCc2nn3c(Cn4cnc5ccccc54)nnc3s2)cc1,"inconclusive: 13 µM [cytotoxic, partial curve, poor fit]",–
CCOCCCNCc1ccc(OCc2ccccc2C)c(OC)c1,"inconclusive: 16.4 µM [cytotoxic, partial curve]",–
O=C(N/N=C/c1ccncc1)c1cc2ccccc2cc1O,inactive,–
C/C(=N/Oc1nc(C)cc(C)n1)c1ccc(F)cc1,"inconclusive: 20.6 µM [rising, partial curve, poor fit]",–
Cc1ccc(C(O)CCc2ccc(N)cc2)cc1 (centres undefined),inactive,–
COc1ccc(C(=O)Nc2ccc3c(c2)C(=O)NC3=O)cc1,"inconclusive: 32.6 µM [rising, single point]",–
CC1CCN(CCc2nc3cc(NS(=O)(=O)c4ccccc4)ccc3n2C)CC1,"inconclusive: 23.1 µM [cytotoxic, single point]",–
O=C(Cn1cnc2c(oc3nc4c(cc32)CCCC4)c1=O)Nc1cccc(Cl)c1,inactive,–
NC1(C(=O)O)CCCCC1c1ccccc1 (centres undefined),inactive,–
C[C@]12c3[nH]c4ccc(Cl)cc4c3CCN1C(=O)[C@@H](CC(=O)NCC13CC4CC(CC(C4)C1)C3)C[C@@H]2C(=O)N1CCOCC1,"inconclusive: 29.1 µM [cytotoxic, single point]",–
COc1ccc(Cl)cc1NC(=O)C1CCCN(c2ncnc3onc(C)c23)C1 (centres undefined),inactive,–
Cc1onc(-c2ccccc2Cl)c1C(=O)O/N=C(\N)c1ccc([N+](=O)[O-])o1,"inconclusive: 29.1 µM [cytotoxic, single point]",–
CCC(C)c1ccccc1N1CC(C(=O)Nc2cc(S(=O)(=O)N3CCOCC3)ccc2OC)CC1=O (centres undefined),inactive,–
CCOc1cc(/C=C/C(=O)c2ccc(OC)c(CN3CCOCC3)c2)cc(Br)c1O,–,inconclusive: -34.1% [cytotoxic]
Cc1sc2ncnc(SCC(=O)c3cccs3)c2c1C,"inconclusive: 20.6 µM [cytotoxic, single point]",–
C=Cc1ccc(Cn2c(C(=O)O)c(CNC3CCCC3)c3ccc(C)cc32)cc1,"inconclusive: 16.4 µM [cytotoxic, single point]",–
CC(C)(C)c1cc(C(=O)N/N=C/c2ccc(F)cc2)n(-c2ccccc2)n1,inactive,–
CCCCn1c(N)c(N(CC(C)C)C(=O)c2cccc(OCc3ccccc3)c2)c(=O)[nH]c1=O,"inconclusive: 29.1 µM [rising, single point]",–

# Part of the list above, with bars between the fields.
Structure (SMILES) | Potency | activity change, negative = cytotoxic
CC(C)COc1ccc(C(=O)OCC(=O)NCc2cccs2)cc1 | inconclusive: 29.1 µM [cytotoxic, single point] | –
CC1(C(=O)NCC2CC2)Cc2c(-c3ccc4c(c3)OCO4)ccnc2O1 (centres undefined) | active: 14.6 µM | –
CCOc1ccc(Nc2nc3cc(Cl)c(Cl)cc3nc2-n2nc(C)cc2C)cc1 | inconclusive: 29.1 µM [rising, partial curve, poor fit] | –
